The target of this assay is wild type glycoprotein (GP) Ib-IX expressed on CHO cells (1b9) (UniProt P07359). Kind of assay: co-IP; 1b9 or S609A cells stimulated by ristocetin (1.25 mg/mL) with or without VWF (35 μg/mL), 30 min RT; lysed in Triton X-100 buffer pH 7.4; lysates precipitated with SZ2 (anti-GPIbα) and protein G sepharose 4B; blotted with SZ2 and anti-14-3-3ζ.

Sequences of proteins named here, by UniProt entry; tags and fusion partners are left off. A change or cut given only in a name is not applied to a line headed by its entry.
UniProt P07359: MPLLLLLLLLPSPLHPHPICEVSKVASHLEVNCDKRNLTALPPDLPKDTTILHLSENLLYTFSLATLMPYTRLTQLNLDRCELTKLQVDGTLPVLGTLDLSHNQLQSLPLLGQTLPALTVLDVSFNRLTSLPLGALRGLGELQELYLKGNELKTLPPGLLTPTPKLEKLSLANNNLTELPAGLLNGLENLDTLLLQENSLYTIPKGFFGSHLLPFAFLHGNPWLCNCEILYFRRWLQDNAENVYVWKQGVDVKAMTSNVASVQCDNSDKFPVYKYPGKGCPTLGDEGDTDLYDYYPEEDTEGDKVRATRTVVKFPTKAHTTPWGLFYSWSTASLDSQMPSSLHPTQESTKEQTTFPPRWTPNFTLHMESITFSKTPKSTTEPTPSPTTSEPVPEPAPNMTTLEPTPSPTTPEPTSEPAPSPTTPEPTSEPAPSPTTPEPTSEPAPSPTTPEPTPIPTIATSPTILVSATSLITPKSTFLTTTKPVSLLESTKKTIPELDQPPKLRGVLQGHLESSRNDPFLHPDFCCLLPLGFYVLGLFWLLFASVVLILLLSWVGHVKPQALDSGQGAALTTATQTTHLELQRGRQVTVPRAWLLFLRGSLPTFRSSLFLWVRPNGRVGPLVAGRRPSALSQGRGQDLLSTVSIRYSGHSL
UniProt G3HKZ1: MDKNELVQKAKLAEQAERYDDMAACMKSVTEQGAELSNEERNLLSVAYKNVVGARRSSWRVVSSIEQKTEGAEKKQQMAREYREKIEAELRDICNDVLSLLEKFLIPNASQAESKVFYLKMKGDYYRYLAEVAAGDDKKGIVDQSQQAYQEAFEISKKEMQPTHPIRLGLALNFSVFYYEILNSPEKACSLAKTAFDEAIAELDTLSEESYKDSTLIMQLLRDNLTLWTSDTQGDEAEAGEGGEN

This is an account of results in PMC3382782.

These are yes or no findings as the source states them, for the method shown. In cells and extracts the contact can be indirect. Some binding calls cover weakened binding; strength is not graded here.

As for 14-3-3ζ (from UniProt G3HKZ1 1-245), the binding result is “binds”.
